Structures were worked out from names or drawings and are uncertain.
Biological target: NR1A/NR2B NMDA receptor (Rattus norvegicus, UniProt P35439+Q00960)
Experiment: Electrophysiological assay, cloned NMDA receptor subunits expressed in Xenopus oocytes (1A/2B)
Format: cell-based
Conditions: read-out: Subunits (IC50 (μM)) 1A/2B, mean IC50, inhibition of NMDA-activated membrane current responses, glutamate 100 μM + glycine
From the text: Electrophysiological Assays at NMDA Receptor Subunits
cDNA clones encoding the NR1A, NR2A, NR2B, NR2C and NR2D rat NMDA receptor subtypes were provided by Dr. P. H. Seeburg (see, Moriyoshi et al., Nature (Lond.) 354:31-37 (1991); Kutsuwada et al., Nature (Lond.) 358:36-41 (1992) Monyer et al., Science (Washington, D.C.) 256:1217-1221 (1992); Ikeda et al., FEBS Lett. 313:34-38 (1992); Ishii et al., J. Biol. Chem. 268:2836-2843 (1993) for details of these clones or their mouse homologs). The clones were transformed into appropriate host bacteria and plasmid preparations were made with conventional DNA purification techniques. […]
Electrical recordings were made using a conventional two-electrode voltage clamp (Dagan TEV-200) over periods ranging between 3-21 days following injection. […] Inhibitory potency of the novel antagonists was assessed on responses elicited by fixed concentrations of glutamate and glycine, by measuring reductions in current induced by progressively increasing concentrations of antagonist. […]
in which Icontrol is the current evoked by agonists alone, pIC50=−log IC50, IC50 is the concentration of antagonist that produces half maximal inhibition, and n is the slope factor. […] For incomplete curves analysis by fitting was unreliable and IC50 values were calculated by simple regression over linear portions of the curves (Origin: Microcal Software).

The chains behind the UniProt entries cited, without tags or fusion partners. Residues count along the entry.
UniProt Q00960, 27-1482 limits assumed: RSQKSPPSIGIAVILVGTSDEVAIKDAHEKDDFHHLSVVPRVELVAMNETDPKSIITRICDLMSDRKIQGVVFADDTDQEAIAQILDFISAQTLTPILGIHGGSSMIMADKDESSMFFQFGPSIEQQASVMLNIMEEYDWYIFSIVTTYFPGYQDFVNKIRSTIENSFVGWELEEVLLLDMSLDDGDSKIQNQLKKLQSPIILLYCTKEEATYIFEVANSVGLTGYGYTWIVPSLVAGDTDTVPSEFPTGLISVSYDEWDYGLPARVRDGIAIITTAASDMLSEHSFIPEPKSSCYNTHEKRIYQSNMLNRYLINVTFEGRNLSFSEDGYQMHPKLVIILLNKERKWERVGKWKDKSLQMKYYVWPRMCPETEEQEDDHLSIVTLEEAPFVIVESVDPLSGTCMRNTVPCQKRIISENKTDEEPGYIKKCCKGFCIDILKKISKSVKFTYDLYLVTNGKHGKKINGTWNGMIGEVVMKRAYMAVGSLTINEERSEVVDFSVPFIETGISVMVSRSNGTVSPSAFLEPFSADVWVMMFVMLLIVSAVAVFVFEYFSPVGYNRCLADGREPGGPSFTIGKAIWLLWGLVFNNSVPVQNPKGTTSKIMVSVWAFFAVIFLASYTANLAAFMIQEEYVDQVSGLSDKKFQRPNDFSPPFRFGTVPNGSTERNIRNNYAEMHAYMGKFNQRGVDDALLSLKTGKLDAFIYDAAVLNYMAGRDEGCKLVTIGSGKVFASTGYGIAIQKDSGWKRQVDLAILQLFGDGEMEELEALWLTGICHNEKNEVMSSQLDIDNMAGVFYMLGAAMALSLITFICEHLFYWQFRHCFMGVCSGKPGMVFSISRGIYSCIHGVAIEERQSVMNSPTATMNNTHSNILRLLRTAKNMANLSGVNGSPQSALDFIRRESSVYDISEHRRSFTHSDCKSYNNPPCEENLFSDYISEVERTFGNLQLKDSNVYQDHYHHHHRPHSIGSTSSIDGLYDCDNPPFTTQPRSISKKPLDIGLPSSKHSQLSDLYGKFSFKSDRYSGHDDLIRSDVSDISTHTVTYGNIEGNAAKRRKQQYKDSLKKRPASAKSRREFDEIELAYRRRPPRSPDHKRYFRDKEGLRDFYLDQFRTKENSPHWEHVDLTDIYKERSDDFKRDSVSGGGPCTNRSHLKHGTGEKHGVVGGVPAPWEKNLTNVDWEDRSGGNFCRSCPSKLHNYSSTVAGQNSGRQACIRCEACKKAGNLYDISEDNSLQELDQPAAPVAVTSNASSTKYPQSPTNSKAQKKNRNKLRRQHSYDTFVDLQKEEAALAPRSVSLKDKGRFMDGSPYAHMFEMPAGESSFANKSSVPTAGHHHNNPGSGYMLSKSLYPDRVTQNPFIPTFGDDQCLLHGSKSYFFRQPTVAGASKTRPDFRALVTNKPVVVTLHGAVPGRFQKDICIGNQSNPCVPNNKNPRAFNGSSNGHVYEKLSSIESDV

CS(=O)(=O)Nc1ccc(C#CCCN2CCC(Sc3ccccc3)CC2)cc1
IC50: 0.4 µM

From US6448270B1, “4-substituted piperidine analogs and their use as subtype selective NMDA receptor antagonists” (Warner-Lambert Company, priority 1995, dated 2002)
